PubChem BioAssay AID1224830 | NIAID, 2016
In all, the deposit lists about 18,000 reagents; shown is a part drawn at random. In the full data, about 2,900 (16%) are marked active. 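Calls are made per well; low scores hint the gene aids the LPS response, high scores that it dampens it.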 A number with no mark means an inactive call. Repeated entries: four replicate wells of each siRNA pool.

Purpose: 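Regulators of TLR4 signalling towards TNF-alpha in macrophage-like cells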 (primary screen)
Cells: human THP-1 monocytic leukaemia cells, TNF dual-luciferase reporter clone, PMA-differentiated to macrophage-like cells
Knock-down reagent: siRNA pool against human genes, 50 nM
Timing: LPS for 4 h, given about 3 days after siRNA transfection
Conditions: bacterial LPS (TLR4 ligand), 10 ng/ml
Read-out: 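Ratio of firefly to renilla light, scaled to the plate median and expressed as a robust z-score per replicate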
Scale: TNF reporter robust z-score: higher = stronger TNF reporter response to LPS
Rule for the call: 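Each well counts as active if its z-score is over 2.8 or under -1.5; controls are left without a call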

target	TNF reporter robust z-score
CTAGE15	-0.79
CTAGE15	-0.58
CTAGE15	-0.64
CTAGE15	-0.53
PHF6	-0.13
PHF6	-0.74
PHF6	0.82
PHF6	3.31 (active)
PPTC7	-0.49
PPTC7	-0.4
PPTC7	-0.39
PPTC7	-1.02
MRPS23	0.57
MRPS23	1.41
MRPS23	-0.47
MRPS23	-0.83
CXCL11	-0.86
CXCL11	-1.14
CXCL11	-1.41
CXCL11	-1
IGSF22	-0.96
IGSF22	-1.51 (active)
IGSF22	-1.06
IGSF22	-0.46
FASLG	-0.39
FASLG	0.14
FASLG	-0.22
FASLG	-0.81
VPS11	-1.42
VPS11	3.06 (active)
VPS11	0.05
VPS11	1.21
AZGP1	1.49
AZGP1	-0.46
AZGP1	-0.76
AZGP1	-1
CES4A	-1.24
CES4A	-1.01
CES4A	-1.22
CES4A	-1.02
SPANXN1	-0.73
SPANXN1	-0.52
SPANXN1	-1.12
SPANXN1	-1.16
ZNF35	-0.5
ZNF35	0.47
ZNF35	-0.9
ZNF35	-0.72
CXCL1	0.91
CXCL1	1.11
CXCL1	1.37
CXCL1	0.17
LYPD5	0.24
LYPD5	1
LYPD5	0.52
LYPD5	1.82
PCDHAC2	0.05
PCDHAC2	-1.01
PCDHAC2	-0.38
PCDHAC2	-0.57
ARHGEF18	0.34
ARHGEF18	0.71
ARHGEF18	0.19
ARHGEF18	-0.3
KDELR2	0.21
KDELR2	0.12
KDELR2	0.02
KDELR2	-0.04
UBP1	-0.36
UBP1	0.03
UBP1	-0.48
UBP1	0.41
KDM5A	-0.31
KDM5A	-0.19
KDM5A	0.58
KDM5A	0.86
POU3F1	0.15
POU3F1	0.91
POU3F1	0.27
POU3F1	0.26
HHAT	-1.05
HHAT	0.01
HHAT	-0.09
HHAT	0.34
MTCH1	-0.13
MTCH1	-0.49
MTCH1	-0.26
MTCH1	0.64
GBP7	0.15
GBP7	0.85
GBP7	0.69
GBP7	0.79
KLK7	-0.86
KLK7	-0.04
KLK7	-1.13
KLK7	0.23
PEAR1	-0.64
PEAR1	-0.46
PEAR1	-0.33
PEAR1	-0.2
ATP1A2	0.04
ATP1A2	2.04
ATP1A2	0.86
ATP1A2	0.43
GSTM5	-0.74
GSTM5	-0.54
GSTM5	-0.11
GSTM5	-0.61
CCDC120	-1.15
CCDC120	-1.22
CCDC120	-1.16
CCDC120	-1.09

Reagents above with an active call (3):
target	TNF reporter robust z-score
PHF6	3.31 (active)
IGSF22	-1.51 (active)
VPS11	3.06 (active)
